This assay addresses KIF21B stalk-domain (aa 401-1100), bait construct (mouse). The assay is described as follows: two-hybrid; DupLEX-A yeast two-hybrid system; KIF21B baits in pGilda, TRIM3 preys in pJG4-5; lacZ reporter, beta-galactosidase activity as average signal intensity of colonies (arbitrary units).

Results are given in words; binding and its absence hold for the method and conditions named. A result given as binding can be weak or reduced; the word gives no strength.

B1: full-length TRIM3 (aa 1-744), prey construct (protein, UniProt Q9R1R2 1-744)
chain: MAKREDSPGPEVQPMDKQFLVCSICLDRYRCPKVLPCLHTFCERCLQNYIPPQSLTLSCPVCRQTSILPEQGVSALQNNFFISSLMEAMQQAPEGAHDPEDPHPLSAVAGRPLSCPNHEGKTMEFYCEACETAMCGECRAGEHREHGTVLLRDVVEQHKAALQRQLEAVRGRLPQLSAAIALVGGISQQLQERKAEALAQISAAFEDLEQALQQRKQALVSDLESICGAKQKVLQTQLDTLRQGQEHIGSSCSFAEQALRLGSAPEVLLVRKHMRERLAALAAQAFPERPHENAQLELVLEVDGLRRSVLNLGALLTTSATAHETVATGEGLRQALVGQPASLTVTTKDKDGRLVRTGSAELCAEITGPDGVRLAVPVVDHKNGTYELVYTARTEGDLLLSVLLYGQPVRGSPFRVRALRPGDLPPSPDDVKRRVKSPGGPGSHVRQKAVRRPSSMYSTGGKRKDNPIEDELVFRVGSRGREKGEFTNLQGVSAASSGRIVVADSNNQCIQVFSNEGQFKFRFGVRGRSPGQLQRPTGVAVDTNGDIIVADYDNRWVSIFSPEGKFKTKIGAGRLMGPKGVAVDRNGHIIVVDNKSCCVFTFQPNGKLVGRFGGRGATDRHFAGPHFVAVNNKNEIVVTDFHNHSVKVYSADGEFLFKFGSHGEGNGQFNAPTGVAVDSNGNIIVADWGNSRIQVFDSSGSFLSYINTSAEPLYGPQGLALTSDGHVVVADAGNHCFKAYRYLQ
Regarding B1, the binding entry is “binds”.

B2: TRIM3-RBCC (aa 1-290), prey construct (domain or fragment, UniProt Q9R1R2 1-290)
chain: MAKREDSPGPEVQPMDKQFLVCSICLDRYRCPKVLPCLHTFCERCLQNYIPPQSLTLSCPVCRQTSILPEQGVSALQNNFFISSLMEAMQQAPEGAHDPEDPHPLSAVAGRPLSCPNHEGKTMEFYCEACETAMCGECRAGEHREHGTVLLRDVVEQHKAALQRQLEAVRGRLPQLSAAIALVGGISQQLQERKAEALAQISAAFEDLEQALQQRKQALVSDLESICGAKQKVLQTQLDTLRQGQEHIGSSCSFAEQALRLGSAPEVLLVRKHMRERLAALAAQAFPERP
As for B2, the binding entry is recorded as “binds”.

The values are drawn from PMC3782429.
